# Record: PubChem BioAssay AID1224830 (NIAID, 2016)
# Screen: 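Regulators of TLR4 signalling towards TNF-alpha in macrophage-like cells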 (primary screen)
# Cell system: human THP-1 monocytic leukaemia cells, TNF dual-luciferase reporter clone, PMA-differentiated to macrophage-like cells
# Reagents: siRNA pool against human genes, 50 nM
# Time to read-out: LPS for 4 h, given about 3 days after siRNA transfection
# Conditions: bacterial LPS (TLR4 ligand), 10 ng/ml
# Read-out: 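Ratio of firefly to renilla light, scaled to the plate median and expressed as a robust z-score per replicate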
# Direction: TNF reporter robust z-score: higher = stronger TNF reporter response to LPS
# Active means: 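Each well counts as active if its z-score is over 2.8 or under -1.5; controls are left without a call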
# This is an unselected part of about 18,000 reagents tested. Over the whole deposit, about 2,900 (16%) were called active. 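Calls are made per well; low scores hint the gene aids the LPS response, high scores that it dampens it.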 Repeated entries: four replicate wells of each siRNA pool.
Gene,TNF reporter robust z-score,activity call
DDX52,-0.34,inactive
DDX52,0.1,inactive
DDX52,0.42,inactive
DDX52,0.8,inactive
SMC5,0.73,inactive
SMC5,1.35,inactive
SMC5,1.74,inactive
SMC5,1.12,inactive
GSG1,-0.98,inactive
GSG1,-0.76,inactive
GSG1,-1.34,inactive
GSG1,-1.51,active
TMF1,1.04,inactive
TMF1,1.56,inactive
TMF1,1.55,inactive
TMF1,1.21,inactive
KRT31,1.3,inactive
KRT31,1.02,inactive
KRT31,1.43,inactive
KRT31,0.86,inactive
KAZALD1,-0.57,inactive
KAZALD1,0.01,inactive
KAZALD1,-0.19,inactive
KAZALD1,-0.48,inactive
TRAPPC8,1.92,inactive
TRAPPC8,1.8,inactive
TRAPPC8,1.42,inactive
TRAPPC8,2.65,inactive
OR8U3,1.23,inactive
OR8U3,3.46,active
OR8U3,0.09,inactive
OR8U3,1.34,inactive
TMSB4Y,-0.18,inactive
TMSB4Y,2.24,inactive
TMSB4Y,2.21,inactive
TMSB4Y,0.81,inactive
LRRC8C,1.01,inactive
LRRC8C,-0.88,inactive
LRRC8C,-0.68,inactive
LRRC8C,0.26,inactive
PDZD7,0.79,inactive
PDZD7,1.25,inactive
PDZD7,0.96,inactive
PDZD7,0.39,inactive
TAS2R39,0.59,inactive
TAS2R39,1.4,inactive
TAS2R39,0.08,inactive
TAS2R39,0.57,inactive
BEND7,-1.05,inactive
BEND7,-0.59,inactive
BEND7,-0.83,inactive
BEND7,-0.33,inactive
PRKDC,1.17,inactive
PRKDC,4.22,active
PRKDC,1.7,inactive
PRKDC,0.31,inactive
CHGB,0.19,inactive
CHGB,1.65,inactive
CHGB,0.35,inactive
CHGB,0.95,inactive
PLAAT5,1.63,inactive
PLAAT5,1.69,inactive
PLAAT5,1.74,inactive
PLAAT5,1.38,inactive
DIRAS3,6.73,active
DIRAS3,3.26,active
DIRAS3,2.59,inactive
DIRAS3,3.28,active
ABCC2,1.11,inactive
ABCC2,1.19,inactive
ABCC2,2.14,inactive
ABCC2,1.9,inactive
POLRMT,2.23,inactive
POLRMT,-0.01,inactive
POLRMT,-0.69,inactive
POLRMT,-0.72,inactive
SSB,0.98,inactive
SSB,-1,inactive
SSB,-0.03,inactive
SSB,0.24,inactive
RASGEF1A,1.68,inactive
RASGEF1A,5.02,active
RASGEF1A,3.29,active
RASGEF1A,1.01,inactive
CPB2,3.19,active
CPB2,0.03,inactive
CPB2,-0.07,inactive
CPB2,0.84,inactive
SIX6,0.06,inactive
SIX6,0.17,inactive
SIX6,-0.38,inactive
SIX6,-0.07,inactive
ZNF138,0.58,inactive
ZNF138,-0.45,inactive
ZNF138,0.92,inactive
ZNF138,0.62,inactive
MAT2B,0.34,inactive
MAT2B,2.5,inactive
MAT2B,1.15,inactive
MAT2B,0.85,inactive
YY1,-0.11,inactive
YY1,0.62,inactive
YY1,0.61,inactive
YY1,1.16,inactive
CCDC63,0.62,inactive
CCDC63,0.42,inactive
CCDC63,0.25,inactive
CCDC63,-0.33,inactive
TPO,-0.26,inactive
TPO,1.3,inactive
TPO,-0.85,inactive
TPO,-0.63,inactive

Ordered by “TNF reporter robust z-score” (descending): 19 of the entries above
Gene,TNF reporter robust z-score,activity call
TMSB4Y,2.24,inactive
TMSB4Y,2.21,inactive
TAS2R39,1.4,inactive
OR8U3,1.34,inactive
PDZD7,1.25,inactive
LRRC8C,1.01,inactive
PDZD7,0.96,inactive
TMSB4Y,0.81,inactive
PDZD7,0.79,inactive
TAS2R39,0.59,inactive
TAS2R39,0.57,inactive
PDZD7,0.39,inactive
LRRC8C,0.26,inactive
TAS2R39,0.08,inactive
TMSB4Y,-0.18,inactive
BEND7,-0.59,inactive
LRRC8C,-0.68,inactive
LRRC8C,-0.88,inactive
BEND7,-1.05,inactive
